The values that follow come from PMC7862700.

The chains behind the UniProt entries cited, without tags or fusion partners. Where a name states a change or a piece, a line headed by the entry shows the natural chain unless it says otherwise.
UniProt P32519: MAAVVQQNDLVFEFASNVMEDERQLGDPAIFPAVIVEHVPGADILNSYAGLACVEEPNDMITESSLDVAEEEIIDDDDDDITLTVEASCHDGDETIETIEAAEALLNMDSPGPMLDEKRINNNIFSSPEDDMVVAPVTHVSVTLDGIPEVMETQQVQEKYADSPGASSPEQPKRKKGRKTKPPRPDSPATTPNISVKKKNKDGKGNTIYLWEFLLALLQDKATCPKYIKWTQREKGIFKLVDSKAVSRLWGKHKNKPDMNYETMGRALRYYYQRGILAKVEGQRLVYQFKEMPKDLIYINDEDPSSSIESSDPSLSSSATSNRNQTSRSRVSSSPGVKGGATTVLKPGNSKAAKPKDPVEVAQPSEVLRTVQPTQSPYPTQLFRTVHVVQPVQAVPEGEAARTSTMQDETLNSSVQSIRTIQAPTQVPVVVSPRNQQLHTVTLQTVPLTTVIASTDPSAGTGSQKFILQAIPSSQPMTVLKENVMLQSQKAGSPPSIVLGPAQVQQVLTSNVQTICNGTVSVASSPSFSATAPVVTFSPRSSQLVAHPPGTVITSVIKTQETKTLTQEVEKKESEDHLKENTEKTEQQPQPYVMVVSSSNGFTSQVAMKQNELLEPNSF
UniProt P50549: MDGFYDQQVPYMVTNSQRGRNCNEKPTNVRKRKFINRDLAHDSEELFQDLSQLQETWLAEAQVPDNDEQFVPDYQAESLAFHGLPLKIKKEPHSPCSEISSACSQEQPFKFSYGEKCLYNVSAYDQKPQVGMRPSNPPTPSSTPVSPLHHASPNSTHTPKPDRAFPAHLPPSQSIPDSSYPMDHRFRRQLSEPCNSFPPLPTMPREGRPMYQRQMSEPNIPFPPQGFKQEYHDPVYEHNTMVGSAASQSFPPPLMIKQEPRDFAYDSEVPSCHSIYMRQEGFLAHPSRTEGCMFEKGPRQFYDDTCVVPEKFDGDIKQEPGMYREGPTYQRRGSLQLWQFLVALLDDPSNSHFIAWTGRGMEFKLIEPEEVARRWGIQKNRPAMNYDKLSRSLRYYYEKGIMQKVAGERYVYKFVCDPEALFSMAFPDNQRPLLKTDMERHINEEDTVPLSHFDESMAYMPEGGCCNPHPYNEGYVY

The entries are a selection whose mix differs from that of the whole data set. For part of these data: At the low end of the ranking the order means little. This is one part of the list. For part of these data: The exact form of the protein is not confirmed.

What all share (test): DAPPL (digital affinity profiling via proximity ligation, sequencing)
What all share (details): 10 mM Tris-HCl pH 7.5, 50 mM NaCl, 1 mM DTT, 4% glycerol, room temperature, 30 min; GST-TFs on glutathione beads, 16-mer random dsDNA library, 0.1% …; high values mean tight binding; double strand, one strand shown; scale: fold enrichment (6-mer frequency, TF over GST control)

In one experiment the target is T1, ERG (UniProt P11308).
T1 sequence: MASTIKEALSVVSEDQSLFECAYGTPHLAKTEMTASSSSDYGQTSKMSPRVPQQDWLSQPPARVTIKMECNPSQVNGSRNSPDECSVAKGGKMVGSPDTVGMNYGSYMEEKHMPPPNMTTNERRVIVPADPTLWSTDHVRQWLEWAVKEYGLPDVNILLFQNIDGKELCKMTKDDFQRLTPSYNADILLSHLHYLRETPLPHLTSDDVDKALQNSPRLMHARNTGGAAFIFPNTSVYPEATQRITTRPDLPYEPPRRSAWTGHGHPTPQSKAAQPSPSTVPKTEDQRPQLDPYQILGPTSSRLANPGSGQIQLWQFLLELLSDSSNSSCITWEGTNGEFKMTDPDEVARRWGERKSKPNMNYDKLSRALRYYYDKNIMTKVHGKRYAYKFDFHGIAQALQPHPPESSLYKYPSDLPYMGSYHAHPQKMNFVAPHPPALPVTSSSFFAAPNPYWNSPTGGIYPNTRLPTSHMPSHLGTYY

In a further experiment the target is ELF1 (UniProt P32519).
In a further experiment the target is T2, ELK4 (UniProt P28324-2).
T2 sequence: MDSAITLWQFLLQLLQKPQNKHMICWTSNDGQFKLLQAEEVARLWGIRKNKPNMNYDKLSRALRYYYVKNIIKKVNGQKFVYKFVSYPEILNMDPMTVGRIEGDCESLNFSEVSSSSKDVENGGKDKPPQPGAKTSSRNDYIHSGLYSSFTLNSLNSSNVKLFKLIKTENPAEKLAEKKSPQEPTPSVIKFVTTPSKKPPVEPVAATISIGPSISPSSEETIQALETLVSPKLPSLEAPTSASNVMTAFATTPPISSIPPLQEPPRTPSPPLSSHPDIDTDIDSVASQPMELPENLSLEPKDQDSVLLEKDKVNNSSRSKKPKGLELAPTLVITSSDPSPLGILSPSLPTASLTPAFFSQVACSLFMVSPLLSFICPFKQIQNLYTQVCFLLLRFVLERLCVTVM

Another experiment deals with T3, ETV4 (UniProt P43268).
T3 sequence: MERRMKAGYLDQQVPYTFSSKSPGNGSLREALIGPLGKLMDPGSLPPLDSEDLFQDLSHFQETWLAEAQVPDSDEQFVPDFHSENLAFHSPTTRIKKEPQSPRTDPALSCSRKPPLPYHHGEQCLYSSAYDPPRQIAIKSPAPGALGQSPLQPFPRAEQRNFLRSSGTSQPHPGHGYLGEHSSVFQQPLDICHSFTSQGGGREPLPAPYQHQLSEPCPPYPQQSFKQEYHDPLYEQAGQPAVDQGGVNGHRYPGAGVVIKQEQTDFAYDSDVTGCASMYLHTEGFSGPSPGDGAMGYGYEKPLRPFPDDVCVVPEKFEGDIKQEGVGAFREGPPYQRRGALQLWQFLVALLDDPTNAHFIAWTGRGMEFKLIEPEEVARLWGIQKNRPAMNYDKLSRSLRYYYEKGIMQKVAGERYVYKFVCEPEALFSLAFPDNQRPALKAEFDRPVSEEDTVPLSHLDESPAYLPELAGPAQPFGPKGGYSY

The next experiment has as its target ETV1 (UniProt P50549).
Another experiment has as its target T4, ERF (UniProt P50548).
T4 sequence: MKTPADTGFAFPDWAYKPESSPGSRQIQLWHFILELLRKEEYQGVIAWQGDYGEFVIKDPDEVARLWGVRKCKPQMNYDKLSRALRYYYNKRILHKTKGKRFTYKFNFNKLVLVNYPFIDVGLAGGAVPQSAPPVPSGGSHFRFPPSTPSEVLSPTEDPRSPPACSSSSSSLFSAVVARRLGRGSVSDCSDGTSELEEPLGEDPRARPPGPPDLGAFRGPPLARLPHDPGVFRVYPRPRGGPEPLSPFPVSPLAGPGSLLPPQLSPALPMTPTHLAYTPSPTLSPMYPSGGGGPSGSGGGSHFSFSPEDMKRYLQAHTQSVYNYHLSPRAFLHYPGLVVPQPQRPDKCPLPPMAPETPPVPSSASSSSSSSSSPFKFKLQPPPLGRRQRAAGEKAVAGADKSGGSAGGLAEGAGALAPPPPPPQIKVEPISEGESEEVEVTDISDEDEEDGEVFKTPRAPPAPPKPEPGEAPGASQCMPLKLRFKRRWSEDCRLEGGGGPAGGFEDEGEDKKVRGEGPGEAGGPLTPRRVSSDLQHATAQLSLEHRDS

Consider CAGCGA, for which the binding signal with ERG worked out at 0.908; with ELF1 it was 0.906; with ELK4, 0.926; with ETV4, 0.868; in the experiment with ETV1, 0.872; with ERF, 0.828.
For AAGTCG, the binding signal in the experiment with ERG was 0.527; in the experiment with ELF1, 0.497; with ELK4, 0.451; in the experiment with ETV4, 0.49; in the experiment with ETV1, 0.526; with ERF, 0.486.
In the case of AGTAGA, the binding signal in the experiment with ERG is 0.745; in the experiment with ELF1 it was 0.757; with ELK4, 0.717; with ETV4, 0.805; with ETV1, 0.796; with ERF, 0.783.
Turning to GCTCGG, the binding signal worked out at 0.692 with ERG; 0.79 with ELF1; 0.661 with ELK4; 0.77 in the experiment with ETV4; 0.922 with ETV1; 0.804 with ERF.
Regarding GAGAAC, the binding signal in the experiment with ERG was determined as 0.426; in the experiment with ELF1, 0.408; with ELK4 it was 0.409; with ETV4 it was 0.375; with ETV1, 0.389; in the experiment with ERF it was 0.406.
For AGTAAG, the binding signal in the experiment with ERG worked out at 0.717; in the experiment with ELF1 it was 0.767; in the experiment with ELK4 it was 0.713; in the experiment with ETV4, 0.754; with ETV1 it was 0.795; with ERF, 0.678.
For AGCAGT, the binding signal with ERG worked out at 0.719; with ELF1 it was 0.749; with ELK4 it was 0.681; with ETV4, 0.736; with ETV1, 0.743; in the experiment with ERF, 0.788.
Take GGCGGA: the binding signal is 0.433 in the experiment with ERG; 0.35 with ELF1; 0.343 with ELK4; 0.39 in the experiment with ETV4; 0.395 in the experiment with ETV1; 0.335 with ERF.
In the case of AGGGCA, the binding signal with ERG worked out at 0.857; with ELF1, 0.787; with ELK4, 0.786; with ETV4, 0.881; in the experiment with ETV1 it was 0.844; in the experiment with ERF, 0.848.
Regarding GCAAGT, the binding signal with ERG worked out at 0.841; with ELF1 it was 0.812; with ELK4, 0.757; in the experiment with ETV4 it was 0.828; with ETV1 it was 0.776; in the experiment with ERF, 0.87.
GGTGAT: the binding signal with ERG turned out to be 0.785; with ELF1, 0.789; with ELK4 it was 0.842; in the experiment with ETV4, 0.794; in the experiment with ETV1, 0.797; in the experiment with ERF, 0.893.
With CTGGGA, the binding signal with ERG was 0.808; in the experiment with ELF1, 0.808; with ELK4, 0.802; in the experiment with ETV4 it was 0.892; with ETV1 it was 0.797; with ERF it was 0.796.
Turning to GCGGTT, the binding signal is 0.844 with ERG; 0.753 with ELF1; 0.826 in the experiment with ELK4; 0.79 in the experiment with ETV4; 0.781 in the experiment with ETV1; 0.792 with ERF.
On to TCGGCA, for which the binding signal is 0.667 with ERG; 0.675 with ELF1; 0.782 in the experiment with ELK4; 0.745 with ETV4; 0.759 with ETV1; 0.729 with ERF.
With GACACC, the binding signal was determined as 0.934 with ERG; 0.929 in the experiment with ELF1; 0.886 in the experiment with ELK4; 0.899 with ETV4; 0.869 in the experiment with ETV1; 0.97 with ERF.
In the case of GGTGTG, the binding signal was determined as 0.747 with ERG; 0.684 in the experiment with ELF1; 0.692 with ELK4; 0.713 in the experiment with ETV4; 0.741 in the experiment with ETV1; 0.656 in the experiment with ERF.
Turning to AGACAC, the binding signal in the experiment with ERG came to 0.758; with ELF1, 0.806; in the experiment with ELK4, 0.875; with ETV4, 0.776; in the experiment with ETV1, 0.724; with ERF, 0.778.
For CGTGAT, the binding signal with ERG came to 0.453; in the experiment with ELF1, 0.473; with ELK4 it was 0.579; with ETV4, 0.486; in the experiment with ETV1, 0.472; with ERF it was 0.481.
In the case of AAGGCG, the binding signal amounted to 0.705 with ERG; 0.675 with ELF1; 0.685 in the experiment with ELK4; 0.656 with ETV4; 0.661 with ETV1; 0.73 with ERF.
Turning to CGAGAC, the binding signal in the experiment with ERG amounted to 0.582; in the experiment with ELF1 it was 0.592; in the experiment with ELK4, 0.611; with ETV4 it was 0.624; with ETV1, 0.544; with ERF, 0.566.
Regarding CAAGAC, the binding signal worked out at 0.875 with ERG; 0.849 in the experiment with ELF1; 0.839 with ELK4; 0.837 with ETV4; 0.855 with ETV1; 0.924 with ERF.
Take GGAGTC: the binding signal in the experiment with ERG was 0.249; with ELF1 it was 0.218; with ELK4, 0.239; in the experiment with ETV4 it was 0.212; in the experiment with ETV1, 0.225; with ERF, 0.218.
Consider ACCGAG, for which the binding signal turned out to be 0.819 with ERG; 0.765 in the experiment with ELF1; 0.817 with ELK4; 0.809 with ETV4; 0.754 with ETV1; 0.709 in the experiment with ERF.
Regarding GACAAT, the binding signal with ERG turned out to be 0.966; in the experiment with ELF1 it was 0.947; with ELK4, 0.907; with ETV4 it was 0.966; with ETV1, 0.864; with ERF, 0.991.
Turning to CCGAGT, the binding signal was found to be 0.966 in the experiment with ERG; 0.943 in the experiment with ELF1; 0.976 with ELK4; 0.891 with ETV4; 0.863 with ETV1; 0.955 with ERF.
Take CAGCTG: the binding signal in the experiment with ERG was found to be 0.877; with ELF1, 0.861; with ELK4, 0.883; with ETV4, 0.881; with ETV1, 0.887; with ERF, 0.799.
With AGCTGG, the binding signal in the experiment with ERG stood at 0.906; in the experiment with ELF1, 0.888; with ELK4 it was 0.941; in the experiment with ETV4 it was 0.933; in the experiment with ETV1, 0.823; with ERF, 0.857.
As to CATAGG, the binding signal with ERG was 0.792; with ELF1, 0.718; with ELK4, 0.702; in the experiment with ETV4, 0.768; with ETV1, 0.692; with ERF, 0.8.
Turning to TAGGAC, the binding signal with ERG came out at 0.844; with ELF1 it was 0.86; in the experiment with ELK4, 0.828; in the experiment with ETV4, 0.908; with ETV1, 0.799; with ERF it was 0.754.
GTCAAT: the binding signal was found to be 0.837 in the experiment with ERG; 0.793 with ELF1; 0.872 with ELK4; 0.861 in the experiment with ETV4; 0.843 in the experiment with ETV1; 0.862 with ERF.
